# Reference: PubChem BioAssay AID1671190 (National Center for Advancing Translational Sciences (NCATS), 2021)
# Amino acid sequences for entries named in this document (tags omitted). A change or cut given only in a name is not applied to a line headed by its entry.
# UniProt P18054: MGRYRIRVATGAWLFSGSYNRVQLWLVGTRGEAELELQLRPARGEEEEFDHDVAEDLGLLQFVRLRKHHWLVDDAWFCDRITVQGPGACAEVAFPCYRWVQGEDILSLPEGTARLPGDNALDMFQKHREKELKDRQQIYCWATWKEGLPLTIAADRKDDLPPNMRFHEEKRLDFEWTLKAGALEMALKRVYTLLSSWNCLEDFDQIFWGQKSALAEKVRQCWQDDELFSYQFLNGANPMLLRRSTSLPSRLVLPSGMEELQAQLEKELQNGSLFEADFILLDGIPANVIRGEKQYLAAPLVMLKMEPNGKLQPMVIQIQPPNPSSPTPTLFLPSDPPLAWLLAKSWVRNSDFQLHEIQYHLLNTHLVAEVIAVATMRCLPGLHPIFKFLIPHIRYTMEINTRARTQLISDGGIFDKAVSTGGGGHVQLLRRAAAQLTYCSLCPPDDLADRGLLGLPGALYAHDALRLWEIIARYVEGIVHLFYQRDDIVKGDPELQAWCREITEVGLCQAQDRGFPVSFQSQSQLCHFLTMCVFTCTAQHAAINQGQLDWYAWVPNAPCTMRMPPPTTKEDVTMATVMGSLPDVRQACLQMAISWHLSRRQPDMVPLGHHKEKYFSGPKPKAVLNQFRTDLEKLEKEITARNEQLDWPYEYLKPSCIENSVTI
# Out of some 580,000 compounds screened, about 6,100 (1.1%) were called active. Inconclusive results, whose numbers are uncertain, are shown with a selection of clear calls. Calls come from the whole dose curve; as a rule, active = well fitted inhibition curve with a large enough effect; inconclusive = small, poorly fitted or top-dose-only effect, or another doubt; inactive = no such curve, though single readings can be large or run the other way. A potency beside an inconclusive call is a rough fit, not a confirmed value.
# Biological target: Polyunsaturated fatty acid lipoxygenase ALOX12 (Homo sapiens) (UniProt P18054)
# Assay: Primary qHTS assay for inhibitors of human arachidonate 12S-lipoxygenase (ALOX12): Round 2
# Conditions: purified 12hLO, xylenol orange hydroperoxide absorbance; series mostly up to 108 µM
# How it was run: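 Hydroperoxide product was detected by ferrous iron/xylenol orange as the 573 to 405 nm absorbance ratio. Arachidonic acid at 40 uM (final) was turned over for 30 min at room temperature by 150 nM human 12hLO, pH 7.0 Hepes buffer, after 15 min compound preincubation.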
# Potency is the fitted concentration of half-maximal effect.
row,Structure (SMILES),Potency
1,CC(=O)c1cccc(NC(=O)C(C)n2c(=O)cc(-c3ccccc3)c3c(C)nn(C)c32)c1 (centres undefined),"inconclusive: 79.4 µM [inhibitor, partial curve, poor fit]"
2,C=CCNC(=O)c1cc(-c2cccc(C)c2)nc2ccccc12,"inconclusive: 39.8 µM [inhibitor, single point]"
3,COc1ccccc1Nc1ncc2c(n1)CN(C(=O)Cc1cccc(F)c1)CCN2,"inconclusive: 44.7 µM [inhibitor, full curve]"
4,O=C(C[C@@H]1O[C@H](CNS(=O)(=O)c2ccc(Cl)cc2)[C@@H](O)[C@H]1O)NC1CC1,"inconclusive: 44.7 µM [inhibitor, full curve]"
5,C=C(C)CNC(=S)N/N=C(\C)c1ccc(OC)cc1,"inconclusive: 35.5 µM [inhibitor, partial curve]"
6,Cc1oc(-c2ccccc2)nc1C(=O)NCc1ccccc1,active: 17.8 µM
7,COc1cccc(CNC(=O)c2ccc(NC(=O)N3CCCCc4ccccc43)cc2)c1OC,"inconclusive: 112 µM [inhibitor, partial curve, poor fit]"
8,CCOC(=O)C1=C(C)NC(C)=C(C(=O)OCC)C1C(=O)OCC(=O)Nc1ccc(NC(C)=O)cc1,"inconclusive: 100 µM [inhibitor, partial curve, poor fit]"
9,CN1CC(=O)N(c2ccccc2F)Cc2c(NCc3cccc(C(F)(F)F)c3)ncnc21,"inconclusive: 50.1 µM [inhibitor, partial curve, poor fit]"
10,COC(=O)c1ccc(NC(=O)C2CCCN2S(=O)(=O)c2ccc(F)cc2)cc1 (centres undefined),"inconclusive: 35.5 µM [inhibitor, single point]"
11,C[C@@H]1COC(=O)[C@@H](CC(=O)OC(C)(C)C)C/C=C\C[C@H](CC(=O)NCCO)C(=O)N1,"inconclusive: 0.562 µM [inhibitor, full curve, poor fit]"
12,CCC(=O)Nc1cc(-c2nnc(OC)c3ccccc23)ccc1N1CCOCC1,"inconclusive: 39.8 µM [inhibitor, partial curve, poor fit]"
13,Cn1c(-c2cccc([N+](=O)[O-])c2)cnc1NCc1cccc([N+](=O)[O-])c1,"inconclusive: 35.5 µM [inhibitor, partial curve]"
14,NS(=O)(=O)c1ccc(N/N=C/c2cn(-c3ccccc3)nc2-c2ccccc2)c([N+](=O)[O-])c1,"inconclusive: 56.2 µM [inhibitor, partial curve, poor fit]"
15,CN(C(=O)c1cn(C)c2ccccc12)C1CCS(=O)(=O)C1 (centres undefined),inactive
16,CCC(=O)c1ccc(OC(=O)/C=C/c2cccc(Cl)c2)cc1,"inconclusive: 15.8 µM [inhibitor, full curve, poor fit]"
17,Cc1cc(NC(=O)CCC(=O)N(C(C(=O)NC(C)(C)C)c2ccccc2Cl)C(C)(C)C)no1 (centres undefined),"inconclusive: 112 µM [inhibitor, single point]"
18,Cn1c(=O)c2[nH]c(CN3CCc4ccccc4C3)nc2n(C)c1=O,inactive
19,COc1cccc(/C=C/C(=O)OCC(=O)NC(=O)NC2CCCCC2)c1,"inconclusive: 126 µM [inhibitor, partial curve, poor fit]"
20,O=C(CC1SC(=O)N(c2ccccc2)C1=O)Nc1cccc2ccccc12 (centres undefined),inactive
21,CCC(C)Cn1c(O)cc2nn(-c3nc4ccccc4s3)c(=O)c-2c1C (centres undefined),active: 31.6 µM
22,CN(C(=O)CSc1nc(-c2ccc(C(C)(C)C)cc2)c(C#N)c(=O)[nH]1)C1CCCCC1,"inconclusive: 112 µM [inhibitor, single point]"

# Reprinted at random: two entries already listed.
row,Structure (SMILES),Potency
19,COc1cccc(/C=C/C(=O)OCC(=O)NC(=O)NC2CCCCC2)c1,"inconclusive: 126 µM [inhibitor, partial curve, poor fit]"
5,C=C(C)CNC(=S)N/N=C(\C)c1ccc(OC)cc1,"inconclusive: 35.5 µM [inhibitor, partial curve]"

# The results go on.

row,Structure (SMILES),Potency
1,Cc1ccc(OCc2nnc(SCc3cc(=O)[nH]c4ccccc34)o2)cc1,"inconclusive: 35.5 µM [inhibitor, partial curve, poor fit]"
2,CC(C)(C)S(=O)(=O)c1cnc2c(-c3ccc(Cl)cc3)cnn2c1N,inactive
3,Cc1cc(C(=O)C(=O)Nc2nnc(C(C)C)s2)c(C)n1-c1ccccc1,"inconclusive: 56.2 µM [inhibitor, partial curve, poor fit]"
4,O=C(Nc1nc(-c2ccc(F)c(F)c2)cs1)C1CCCN(C(=O)c2ccoc2)C1 (centres undefined),inactive
5,Cc1ccc(C(=O)CNc2ccc(C)c(Cl)c2)cc1,"inconclusive: 50.1 µM [inhibitor, partial curve, poor fit]"
6,Cc1ccc(CNS(=O)(=O)c2ccc3c(c2)CCN3C(=O)C2CCC2)cc1,inactive
7,CCC(C)C(NC(=O)c1ccccc1NC(=O)c1ccco1)C(=O)O (centres undefined),"inconclusive: 39.8 µM [inhibitor, partial curve, poor fit]"
8,Cc1ccccc1NS(=O)(=O)c1ccc2[nH]c3c(c2c1)CCCCC3,inactive
9,O=C(Nc1nc2ccccc2s1)C1CCN(C(=O)c2ccco2)CC1,"inconclusive: 89.1 µM [inhibitor, partial curve, poor fit]"
10,CCN(CC)CCn1c(=N)n(CCOc2ccccc2)c2ccccc21,inactive
11,COc1cccc(CNC(=O)[C@H]2CCCN2C(=O)[C@H]2CCCN2C(=O)N2CCCCC2)c1,inactive
12,COc1cc2c(cc1OC)C(C[C@H]1CN(C(=O)Cc3ccccc3)CC[C@H]1CC(=O)O)=NCC2,"inconclusive: 56.2 µM [inhibitor, partial curve]"
13,Cc1ccc(NC(=O)C2(C)CCN2C2Cc3ccccc3C2)cc1 (centres undefined),inactive
14,O=C(Nc1sc2c(c1C(=O)O)CCCCC2)c1ccco1,inactive
15,O=C(CC1CCCC1)NCC1CCCO1 (centres undefined),"inconclusive: 39.8 µM [inhibitor, partial curve, poor fit]"
16,CCOC(=O)c1cc(-c2ccccc2)n(CCC(=O)Nc2nc3c(C)cccc3s2)c1C,"inconclusive: 50.1 µM [inhibitor, partial curve, poor fit]"
17,CCCCc1cc(-c2n[nH]c(=S)o2)c2ccccc2n1,"inconclusive: 50.1 µM [inhibitor, partial curve, poor fit]"
18,CCOc1cc(/C=C2/NC(=O)NC2=O)cc(I)c1OCc1ccc(F)cc1,"inconclusive: 79.4 µM [inhibitor, single point]"
19,O=C(NCCc1ccccc1F)C(=O)Nc1nccs1,"inconclusive: 31.6 µM [inhibitor, single point]"
20,O=C(N/N=C/c1cc(Cl)cc([N+](=O)[O-])c1O)c1ccc2c(c1)OCO2,inactive
21,Fc1cccc(CSc2ccc3nnc(-c4cccnc4)n3n2)c1,inactive
22,O=C(c1ccccc1)N1CCC(Oc2cccc(F)c2)(C(=O)O)CC1,inactive

# Entries from the list above with a nitro group on carbon:
row,Structure (SMILES),Potency
13,Cn1c(-c2cccc([N+](=O)[O-])c2)cnc1NCc1cccc([N+](=O)[O-])c1,"inconclusive: 35.5 µM [inhibitor, partial curve]"
14,NS(=O)(=O)c1ccc(N/N=C/c2cn(-c3ccccc3)nc2-c2ccccc2)c([N+](=O)[O-])c1,"inconclusive: 56.2 µM [inhibitor, partial curve, poor fit]"
20,O=C(N/N=C/c1cc(Cl)cc([N+](=O)[O-])c1O)c1ccc2c(c1)OCO2,inactive

# Next part

row,Structure (SMILES),Potency
1,Cc1ncc(CO)c(/C=N/Nc2cccc(Cl)n2)c1O,"inconclusive: 3.16 µM [inhibitor, full curve, poor fit]"
2,CCCCN(C)Cc1ccc(OCc2ccccc2)cc1,"inconclusive: 0.355 µM [inhibitor, full curve, poor fit]"
3,C/C(=N\NC(=O)C1CC1c1ccccc1)c1ccc(C)c(C)c1 (centres undefined),"inconclusive: 20 µM [inhibitor, full curve, poor fit]"
4,Cc1cccc(NC(=O)c2cc3ccccc3oc2=O)c1,"inconclusive: 39.8 µM [inhibitor, partial curve, poor fit]"
5,Cn1c(=O)c2sccc2n2c(CCCC(=O)Nc3ccc(Oc4ccc(Cl)cc4)cc3)nnc12,"inconclusive: 63.1 µM [inhibitor, partial curve, poor fit]"
6,NC(=O)c1ccc(NC(=O)CCc2ncc(-c3ccc(F)cc3)o2)cc1,"inconclusive: 56.2 µM [inhibitor, partial curve, poor fit]"
7,CCOC(=O)N1CCN(c2c(-c3ccc(C)cc3)c(=O)c2=O)CC1,"inconclusive: 44.7 µM [inhibitor, partial curve, poor fit]"
8,O=C(NCCCc1ccccc1)c1cccc(NC(=O)C2CCCCC2)c1,"inconclusive: 126 µM [inhibitor, single point]"
9,CC(C)n1c(SCC(=O)NC2CC2)nnc1C1CC1,"inconclusive: 63.1 µM [inhibitor, partial curve, poor fit]"
10,Nc1[nH]c(=S)[nH]c(=O)c1-c1ccccc1,active: 7.08 µM
11,Cc1ccc(S(=O)(=O)Cc2ccc(C(=O)NCc3ccc4c(c3)OCO4)o2)cc1,"inconclusive: 44.7 µM [inhibitor, partial curve]"
12,C=CCN(CC=C)Cc1c(C)[nH]c2ccccc2c1=O,inactive
13,CC(=O)N1c2c(cc(Br)cc2S(=O)(=O)N2CCN(c3ccccc3)CC2)CC1C (centres undefined),inactive
14,COCCNC(=O)Cn1cc(/C=N/NC(=O)c2ccc(Oc3ccc(O)cc3)cc2)c2ccccc21,"inconclusive: 79.4 µM [inhibitor, single point]"
15,CCN1CCN(c2cc(-c3ccccc3)nc3cc(-c4cccc(F)c4)nn23)CC1,"inconclusive: 70.8 µM [inhibitor, partial curve, poor fit]"
16,OCC1CCCN(C2CCN(Cc3nc(Cc4cccc(C(F)(F)F)c4)no3)CC2)C1 (centres undefined),"inconclusive: 3.16 µM [inhibitor, full curve, poor fit]"
17,Cc1onc(-c2ccccc2Cl)c1C(=O)Nc1nc2c(s1)CCCC2,"inconclusive: 158 µM [inhibitor, partial curve, poor fit]"
18,C/C=C/C=C/CCCCCCCO,"inconclusive: 224 µM [inhibitor, single point]"
19,COc1ccc(CCC(C)NCc2ccc(Cl)c(Cl)c2)cc1 (centres undefined),"inconclusive: 100 µM [inhibitor, single point]"
20,COc1ccc(C(=O)Oc2ccc3c(=O)c(Oc4ccc(C(C)(C)C)cc4)coc3c2)cc1OC,"inconclusive: 2.82 µM [inhibitor, full curve, poor fit]"
